Results on one compound are retold here after US20250163057A1, “DCN-1 MODULATING COMPOUNDS AND METHODS OF USE THEREOF” (Cellarity, Inc., priority 2023, published 2025).

The chains behind the UniProt entries cited, without tags or fusion partners. Residues count along the entry.
UniProt Q96GG9, whole entry: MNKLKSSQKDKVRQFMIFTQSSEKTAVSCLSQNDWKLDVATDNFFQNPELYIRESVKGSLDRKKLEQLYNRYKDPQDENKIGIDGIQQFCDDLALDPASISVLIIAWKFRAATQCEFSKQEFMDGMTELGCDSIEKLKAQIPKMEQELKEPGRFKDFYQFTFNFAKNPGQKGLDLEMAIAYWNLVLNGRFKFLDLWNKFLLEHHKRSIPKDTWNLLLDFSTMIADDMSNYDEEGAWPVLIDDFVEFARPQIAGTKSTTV
UniProt Q96GG9, 60-248 limits assumed: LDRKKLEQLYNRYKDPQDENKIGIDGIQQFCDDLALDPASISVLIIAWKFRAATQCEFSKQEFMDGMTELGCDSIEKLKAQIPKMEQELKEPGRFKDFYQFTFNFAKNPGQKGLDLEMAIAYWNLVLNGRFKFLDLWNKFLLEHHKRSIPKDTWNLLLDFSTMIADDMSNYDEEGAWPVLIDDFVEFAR

Assay [1] deals with DCN1 (DCUND1) protein PONY domain (Homo sapiens (Human), UniProt Q96GG9). Nature of the assay: TR-FRET assay, DCN1 binding with FAM-labeled probe. Conditions: read-out: TR FRET IC50 24 hr; 24 hr after treatment with compound.
A further assay has as its target DCN1 protein (Homo sapiens (Human), UniProt Q96GG9). Description: Intact Protein MS Analysis with the RapidFire-TOF System (covalent adduct formation). The note with it: MS Emax; 400 nM DCN1, 3 hours at room temperature.

Structures were worked out from names or drawings and are uncertain.

Regarding `CCN1C(=O)[C@@H](NC(=O)c2cccc(C(F)(F)F)c2)[C@@H](c2ccc(F)cc2)c2c(CN(C)C(=O)/C=C/CN3CCOCC3)nn(-c3ccccc3)c21` (relative stereo), the IC50 in assay [1] was in the range of 1000 to 3000 nM. Also, the “% Adduct Formation” value at DCN1 protein was “+ (MS Emax % adduct formation greater than or equal to 0.0 and less than or equal to 30.0)”.

As usually defined, the IC50 is the midpoint of a concentration-inhibition curve.
